Results as given in the supplement of paper PMC10849652.
The list shows a part of the results.

Protein sequences, listed by entry. Tags and fused reporters are not part of them. Lines headed by an entry give the natural chain unless they say otherwise; changes in a name come on top.
UniProt A4D1E9: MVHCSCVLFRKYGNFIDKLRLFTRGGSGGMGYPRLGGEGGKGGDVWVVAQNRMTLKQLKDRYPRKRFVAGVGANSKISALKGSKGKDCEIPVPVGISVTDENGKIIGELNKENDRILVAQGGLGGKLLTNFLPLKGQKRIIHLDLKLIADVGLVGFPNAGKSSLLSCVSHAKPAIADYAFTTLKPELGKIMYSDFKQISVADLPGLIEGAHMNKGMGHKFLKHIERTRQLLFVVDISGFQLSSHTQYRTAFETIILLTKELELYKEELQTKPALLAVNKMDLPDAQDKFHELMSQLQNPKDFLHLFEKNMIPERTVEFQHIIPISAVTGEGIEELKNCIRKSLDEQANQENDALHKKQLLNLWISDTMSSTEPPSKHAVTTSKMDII
UniProt Q8WW33: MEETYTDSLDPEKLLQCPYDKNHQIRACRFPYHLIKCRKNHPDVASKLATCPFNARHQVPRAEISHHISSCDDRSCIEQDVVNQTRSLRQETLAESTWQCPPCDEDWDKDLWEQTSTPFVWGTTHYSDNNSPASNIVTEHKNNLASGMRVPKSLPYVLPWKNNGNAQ
UniProt P69892: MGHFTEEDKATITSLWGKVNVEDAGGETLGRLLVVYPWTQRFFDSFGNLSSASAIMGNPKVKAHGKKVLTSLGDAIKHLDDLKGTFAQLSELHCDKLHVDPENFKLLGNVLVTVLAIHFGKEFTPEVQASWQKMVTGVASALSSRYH
UniProt P04921: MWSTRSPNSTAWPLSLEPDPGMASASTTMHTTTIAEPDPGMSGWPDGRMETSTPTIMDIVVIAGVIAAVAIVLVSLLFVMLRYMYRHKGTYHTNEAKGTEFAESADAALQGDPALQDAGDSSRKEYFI
UniProt Q9NRV9: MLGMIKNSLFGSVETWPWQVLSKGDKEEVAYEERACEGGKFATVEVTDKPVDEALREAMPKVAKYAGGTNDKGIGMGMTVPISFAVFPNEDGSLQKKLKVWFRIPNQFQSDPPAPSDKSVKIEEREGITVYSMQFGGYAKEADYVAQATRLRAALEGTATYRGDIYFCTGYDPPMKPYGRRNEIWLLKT
UniProt Q9BSE4: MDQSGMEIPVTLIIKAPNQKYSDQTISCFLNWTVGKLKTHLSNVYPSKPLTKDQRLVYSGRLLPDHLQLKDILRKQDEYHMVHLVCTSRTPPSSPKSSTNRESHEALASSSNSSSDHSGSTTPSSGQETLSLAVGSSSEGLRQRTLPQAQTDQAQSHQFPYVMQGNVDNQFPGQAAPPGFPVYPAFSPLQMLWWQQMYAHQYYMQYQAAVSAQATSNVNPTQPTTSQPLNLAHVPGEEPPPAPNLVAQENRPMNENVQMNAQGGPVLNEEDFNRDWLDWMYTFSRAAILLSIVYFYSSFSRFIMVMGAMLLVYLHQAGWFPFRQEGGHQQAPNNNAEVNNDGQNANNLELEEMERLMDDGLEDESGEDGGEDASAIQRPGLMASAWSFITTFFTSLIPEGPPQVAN
UniProt Q9P0R6: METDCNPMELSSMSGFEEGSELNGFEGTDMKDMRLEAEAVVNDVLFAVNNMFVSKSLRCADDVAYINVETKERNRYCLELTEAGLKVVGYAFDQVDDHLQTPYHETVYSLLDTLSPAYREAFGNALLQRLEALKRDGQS
UniProt P28161: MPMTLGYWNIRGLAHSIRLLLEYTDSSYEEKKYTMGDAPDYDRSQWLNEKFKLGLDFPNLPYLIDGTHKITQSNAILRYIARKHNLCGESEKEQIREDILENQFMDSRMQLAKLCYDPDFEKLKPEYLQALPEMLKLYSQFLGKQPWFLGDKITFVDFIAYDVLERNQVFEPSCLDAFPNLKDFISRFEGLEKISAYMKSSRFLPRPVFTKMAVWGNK
UniProt P68871: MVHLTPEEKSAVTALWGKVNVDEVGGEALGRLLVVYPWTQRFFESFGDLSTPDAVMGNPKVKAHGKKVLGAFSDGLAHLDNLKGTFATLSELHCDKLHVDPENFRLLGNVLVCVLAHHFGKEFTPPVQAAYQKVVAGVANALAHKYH
UniProt P56524: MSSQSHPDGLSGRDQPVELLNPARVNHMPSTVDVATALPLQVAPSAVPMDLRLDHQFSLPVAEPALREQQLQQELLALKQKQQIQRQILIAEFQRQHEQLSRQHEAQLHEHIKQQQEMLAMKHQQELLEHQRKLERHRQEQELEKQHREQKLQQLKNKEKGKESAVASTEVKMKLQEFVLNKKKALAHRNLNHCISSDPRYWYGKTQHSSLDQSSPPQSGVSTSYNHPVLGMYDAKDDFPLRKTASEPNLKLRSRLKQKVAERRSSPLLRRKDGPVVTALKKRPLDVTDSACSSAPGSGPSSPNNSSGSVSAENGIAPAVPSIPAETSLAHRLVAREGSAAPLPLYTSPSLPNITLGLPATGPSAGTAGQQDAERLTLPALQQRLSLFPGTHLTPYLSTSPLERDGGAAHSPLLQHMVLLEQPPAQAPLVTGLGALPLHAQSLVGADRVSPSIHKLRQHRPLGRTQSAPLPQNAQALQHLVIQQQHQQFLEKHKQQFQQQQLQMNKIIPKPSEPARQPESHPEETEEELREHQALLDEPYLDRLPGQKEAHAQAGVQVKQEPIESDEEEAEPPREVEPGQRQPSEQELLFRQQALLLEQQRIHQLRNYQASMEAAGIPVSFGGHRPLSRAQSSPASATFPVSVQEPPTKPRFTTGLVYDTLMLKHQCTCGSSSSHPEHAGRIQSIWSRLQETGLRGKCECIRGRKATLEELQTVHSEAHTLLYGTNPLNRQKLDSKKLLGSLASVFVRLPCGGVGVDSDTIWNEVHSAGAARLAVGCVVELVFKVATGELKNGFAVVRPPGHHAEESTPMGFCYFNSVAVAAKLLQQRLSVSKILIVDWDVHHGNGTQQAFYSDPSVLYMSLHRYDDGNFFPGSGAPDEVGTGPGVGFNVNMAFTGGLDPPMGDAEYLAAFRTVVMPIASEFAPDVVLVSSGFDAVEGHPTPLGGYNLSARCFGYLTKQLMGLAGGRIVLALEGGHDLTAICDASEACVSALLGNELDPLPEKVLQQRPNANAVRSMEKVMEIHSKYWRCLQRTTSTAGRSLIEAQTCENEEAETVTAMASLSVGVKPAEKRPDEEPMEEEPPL
UniProt Q93099: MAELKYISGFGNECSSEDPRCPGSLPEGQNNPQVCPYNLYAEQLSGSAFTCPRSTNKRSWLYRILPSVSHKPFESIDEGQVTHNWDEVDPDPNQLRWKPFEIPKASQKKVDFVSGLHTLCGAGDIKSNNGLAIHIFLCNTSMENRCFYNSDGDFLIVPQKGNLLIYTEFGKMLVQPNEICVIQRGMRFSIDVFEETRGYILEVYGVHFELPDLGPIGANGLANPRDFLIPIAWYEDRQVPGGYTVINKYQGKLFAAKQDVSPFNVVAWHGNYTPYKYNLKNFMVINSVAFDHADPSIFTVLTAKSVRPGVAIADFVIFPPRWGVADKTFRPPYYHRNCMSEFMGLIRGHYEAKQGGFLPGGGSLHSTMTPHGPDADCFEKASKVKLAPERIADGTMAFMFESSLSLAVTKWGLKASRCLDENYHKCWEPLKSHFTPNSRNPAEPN
UniProt Q9H116: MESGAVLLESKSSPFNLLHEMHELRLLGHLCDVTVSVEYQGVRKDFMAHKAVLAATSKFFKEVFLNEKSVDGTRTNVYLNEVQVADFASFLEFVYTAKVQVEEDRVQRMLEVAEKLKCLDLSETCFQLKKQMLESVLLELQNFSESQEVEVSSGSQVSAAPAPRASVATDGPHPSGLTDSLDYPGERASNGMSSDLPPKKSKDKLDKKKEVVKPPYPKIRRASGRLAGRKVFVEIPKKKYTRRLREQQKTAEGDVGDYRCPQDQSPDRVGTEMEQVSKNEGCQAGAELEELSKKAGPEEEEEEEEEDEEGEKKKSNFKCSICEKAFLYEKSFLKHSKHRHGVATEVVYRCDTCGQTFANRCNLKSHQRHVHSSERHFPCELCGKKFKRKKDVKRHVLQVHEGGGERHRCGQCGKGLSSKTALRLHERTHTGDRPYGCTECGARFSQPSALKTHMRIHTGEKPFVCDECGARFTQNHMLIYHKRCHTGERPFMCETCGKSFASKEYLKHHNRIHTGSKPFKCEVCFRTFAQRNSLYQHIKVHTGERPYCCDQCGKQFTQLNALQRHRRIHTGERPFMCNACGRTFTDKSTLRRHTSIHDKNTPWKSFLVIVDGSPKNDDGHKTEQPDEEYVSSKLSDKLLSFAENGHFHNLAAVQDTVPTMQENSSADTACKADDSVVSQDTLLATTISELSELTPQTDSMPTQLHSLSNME
UniProt Q9H583: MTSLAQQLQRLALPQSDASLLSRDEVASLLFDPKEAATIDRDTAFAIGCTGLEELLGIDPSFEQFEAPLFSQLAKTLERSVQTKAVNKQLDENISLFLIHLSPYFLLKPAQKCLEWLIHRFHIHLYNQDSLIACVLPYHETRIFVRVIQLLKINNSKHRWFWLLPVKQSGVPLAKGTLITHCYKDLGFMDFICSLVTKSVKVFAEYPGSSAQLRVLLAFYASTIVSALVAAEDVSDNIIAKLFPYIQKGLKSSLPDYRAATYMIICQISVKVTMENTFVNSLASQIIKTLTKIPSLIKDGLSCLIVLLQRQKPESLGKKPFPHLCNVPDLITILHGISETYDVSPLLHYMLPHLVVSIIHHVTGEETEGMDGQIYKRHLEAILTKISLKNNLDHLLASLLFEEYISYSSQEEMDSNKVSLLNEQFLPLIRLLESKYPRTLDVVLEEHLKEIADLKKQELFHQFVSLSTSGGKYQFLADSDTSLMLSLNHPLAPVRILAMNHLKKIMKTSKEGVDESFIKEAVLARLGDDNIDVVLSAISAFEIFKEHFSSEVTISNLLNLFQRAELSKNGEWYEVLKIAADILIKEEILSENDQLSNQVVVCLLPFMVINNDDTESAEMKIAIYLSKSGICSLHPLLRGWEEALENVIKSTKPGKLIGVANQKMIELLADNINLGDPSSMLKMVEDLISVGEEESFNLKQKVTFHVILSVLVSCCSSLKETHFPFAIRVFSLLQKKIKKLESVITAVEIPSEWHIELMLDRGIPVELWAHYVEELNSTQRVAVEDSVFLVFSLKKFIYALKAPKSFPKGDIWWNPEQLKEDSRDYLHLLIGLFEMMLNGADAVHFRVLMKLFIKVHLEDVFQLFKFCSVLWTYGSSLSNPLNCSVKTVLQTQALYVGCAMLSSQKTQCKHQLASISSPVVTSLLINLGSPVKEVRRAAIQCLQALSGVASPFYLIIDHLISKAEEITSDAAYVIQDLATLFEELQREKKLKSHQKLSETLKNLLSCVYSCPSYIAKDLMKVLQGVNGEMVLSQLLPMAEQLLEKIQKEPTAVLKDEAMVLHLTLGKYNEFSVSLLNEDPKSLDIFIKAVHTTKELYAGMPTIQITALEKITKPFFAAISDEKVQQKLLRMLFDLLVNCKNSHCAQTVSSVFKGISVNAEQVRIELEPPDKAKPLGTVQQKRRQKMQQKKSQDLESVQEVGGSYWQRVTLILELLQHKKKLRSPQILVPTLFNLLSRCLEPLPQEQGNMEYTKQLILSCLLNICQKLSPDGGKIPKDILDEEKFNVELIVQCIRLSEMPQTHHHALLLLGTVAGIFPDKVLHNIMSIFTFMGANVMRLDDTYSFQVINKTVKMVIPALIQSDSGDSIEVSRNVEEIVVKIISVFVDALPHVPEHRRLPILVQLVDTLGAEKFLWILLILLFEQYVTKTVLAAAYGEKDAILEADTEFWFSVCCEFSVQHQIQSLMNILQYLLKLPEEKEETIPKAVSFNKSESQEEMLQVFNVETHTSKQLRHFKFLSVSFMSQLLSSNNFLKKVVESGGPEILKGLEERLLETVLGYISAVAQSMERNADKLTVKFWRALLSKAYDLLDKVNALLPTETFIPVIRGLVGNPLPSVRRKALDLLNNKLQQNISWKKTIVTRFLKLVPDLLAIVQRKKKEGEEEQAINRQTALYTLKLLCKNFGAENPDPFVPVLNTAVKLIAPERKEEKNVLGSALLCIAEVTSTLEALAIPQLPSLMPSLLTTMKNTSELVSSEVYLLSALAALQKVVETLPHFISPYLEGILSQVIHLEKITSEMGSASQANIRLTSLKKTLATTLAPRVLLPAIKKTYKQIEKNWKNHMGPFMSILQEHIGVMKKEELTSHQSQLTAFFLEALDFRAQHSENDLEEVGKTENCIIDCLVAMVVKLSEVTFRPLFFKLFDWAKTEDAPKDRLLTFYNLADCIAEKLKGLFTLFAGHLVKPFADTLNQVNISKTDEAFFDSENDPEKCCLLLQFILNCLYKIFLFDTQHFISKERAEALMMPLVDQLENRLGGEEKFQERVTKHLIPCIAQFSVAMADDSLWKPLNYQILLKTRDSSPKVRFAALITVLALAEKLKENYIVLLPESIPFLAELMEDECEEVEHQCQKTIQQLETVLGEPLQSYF
UniProt Q6Y1H2: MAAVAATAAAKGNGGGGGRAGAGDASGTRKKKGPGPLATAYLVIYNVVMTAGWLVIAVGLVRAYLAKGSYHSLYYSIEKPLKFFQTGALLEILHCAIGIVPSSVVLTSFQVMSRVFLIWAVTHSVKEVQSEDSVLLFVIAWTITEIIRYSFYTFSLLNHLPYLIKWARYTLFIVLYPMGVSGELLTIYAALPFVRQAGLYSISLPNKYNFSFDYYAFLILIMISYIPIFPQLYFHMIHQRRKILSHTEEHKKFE

Legend:
Assay in all cases: log2 fold change, soluble protein after heating vs DMSO (PISA); higher = thermal stabilisation; K562 cells, 10 uM, 30 min; active = over 0.2 and 3.5 SD of the protein, either way, in both replicates (recomputed)
saracatinib = compound: CN1CCN(CCOc2cc(OC3CCOCC3)c3c(Nc4c(Cl)ccc5c4OCO5)ncnc3c2)CC1 [saracatinib]
Method in brief: (§1)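 Quantification of soluble protein used TMTpro 16plex LC-MS/MS, with channel sums equalised. Samples were the supernatant after 21,000xg for 90 min of pooled aliquots from K562 cells (2×10^6 cells/mL) treated with 10 μM compound for 30 min, heated for 3 min over 48°C-58°C, and extracted in PBS with 0.5% NP-40 at 4°C. Values, from duplicates, describe thermal stability against control samples on a log2 fold-change scale.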

sotrastaurin = compound: CN1CCN(c2nc(C3=C(c4c[nH]c5ccccc45)C(=O)NC3=O)c3ccccc3n2)CC1 [sotrastaurin]
Method in brief: as §1

alvocidib = compound: CN1CC[C@H](c2c(O)cc(O)c3c(=O)cc(-c4ccccc4Cl)oc23)[C@H](O)C1 [alvocidib]
Method in brief: as §1

Tubastatin A = compound: CN1CCc2c(c3ccccc3n2Cc2ccc(C(=O)NO)cc2)C1 [Tubastatin A]
Method in brief: as §1

defactinib = compound: CNC(=O)c1ccc(Nc2ncc(C(F)(F)F)c(NCc3nccnc3N(C)S(C)(=O)=O)n2)cc1 [defactinib]
Method in brief: as §1

rucaparib = compound: CNCc1ccc(-c2[nH]c3cc(F)cc4c3c2CCNC4=O)cc1 [rucaparib]
Method in brief: as §1

[1] = compound: CNc1nc(-c2ccc3c(N)n[nH]c3c2)cc(N2C[C@@H](C(=O)NC3CCCCC3)CC[C@H]2C)n1
Method in brief: as §1

encorafenib = compound: COC(=O)N[C@@H](C)CNc1nccc(-c2cn(C(C)C)nc2-c2cc(Cl)cc(NS(C)(=O)=O)c2F)n1 [encorafenib]
Method in brief: as §1

[2] = compound: COC(=O)[C@H](CCSC)NC(=O)C1=C(C=C(C=C1)NC[C@H](CS)N)C2=CC=CC=C2
Method in brief: as §1

[3] = compound: CNC(=O)C1=CC=CC=C1NC2=NC(=NC=C2Cl)NC3=C(C=C(C=C3)N4CCOCC4)OC
Method in brief: as §1

Measured: log2 fold change

GTPBP4 (UniProt Q9BZE4)
inactive: saracatinib -0.135 | sotrastaurin -0.042 | alvocidib 0.273 | Tubastatin A 0.018 | defactinib 0.01 | rucaparib 0.357 | [1] -0.01 | encorafenib 0.208 | [2] 0.064

HDAC5 isoform 3 (UniProt Q9UQL6)
inactive: saracatinib -0.02 | sotrastaurin -0.088 | alvocidib -0.283 | Tubastatin A 0.062 | [3] -0.166 | rucaparib 0.256 | [1] -0.238 | encorafenib -0.06

GTPBP10 (UniProt A4D1E9)
inactive: saracatinib -0.066 | sotrastaurin -0.027 | alvocidib -0.022 | Tubastatin A 0.021 | [3] -0.061 | defactinib -0.071 | rucaparib -0.003 | [1] 0.146 | encorafenib 0.07 | [2] -0.024

GTF2I (UniProt P78347)
inactive: saracatinib -0.009 | sotrastaurin -0.16 | alvocidib 0.031 | Tubastatin A 0.232 | [3] -0.012 | defactinib -0.073 | rucaparib 0.269 | [1] -0.067 | encorafenib -0.127 | [2] -0.164

HERC2 (UniProt O95714)
inactive: saracatinib -0.088 | sotrastaurin -0.018 | alvocidib 0.21 | Tubastatin A 0.036 | defactinib 0.274 | rucaparib 0.18 | [1] 0.189 | encorafenib 0.053 | [2] 0.039

GTF2F1 (UniProt P35269)
inactive: saracatinib 0.059 | sotrastaurin 0.03 | alvocidib 0.055 | Tubastatin A 0.029 | [3] -0.051 | defactinib 0.019 | rucaparib 0.015 | [1] -0.009 | encorafenib -0.015 | [2] -0.012

HAUS6 (UniProt Q7Z4H7)
inactive: saracatinib -0.104 | sotrastaurin -0.057 | alvocidib 0 | Tubastatin A -0.146 | [3] -0.05 | rucaparib 0.252 | [1] 0.085 | encorafenib 0.256

HAGHL (UniProt Q6PII5)
inactive: saracatinib 0.059 | sotrastaurin 0.126 | alvocidib -0.015 | Tubastatin A 0.053 | [3] -0.002 | rucaparib 0.137 | [1] -0.016 | encorafenib 0.02

GSTM5 (UniProt P46439)
inactive: saracatinib 0.121 | sotrastaurin 0.025 | alvocidib 0.135 | Tubastatin A -0.017 | [3] -0.013 | defactinib 0.015 | [1] -0.166 | [2] 0.044

HAGHL isoform 2 (UniProt Q6PII5)
inactive: saracatinib 0.126 | sotrastaurin 0.002 | alvocidib -0.026 | [3] 0.033 | defactinib -0.133 | [1] 0 | [2] -0.074

GSN (UniProt P06396)
inactive: saracatinib 0.006 | sotrastaurin 0.1 | alvocidib 0.041 | Tubastatin A -0.049 | [3] 0.005 | defactinib -0.01 | rucaparib -0.098 | [1] -0.044 | encorafenib -0.027 | [2] 0.083

GTSF1 (UniProt Q8WW33)
inactive: saracatinib 0.046 | sotrastaurin 0.044 | alvocidib -0.032 | Tubastatin A -0.037 | [3] 0.031 | defactinib -0.005 | rucaparib -0.032 | [1] -0.033 | encorafenib 0.002 | [2] 0.03

HBG2 (UniProt P69892)
inactive: saracatinib 0.023 | sotrastaurin -0.082 | alvocidib -0.031 | Tubastatin A 0.007 | [3] -0.025 | defactinib -0.022 | rucaparib 0 | [1] -0.01 | encorafenib 0.011 | [2] -0.003

HEATR5A (UniProt Q86XA9)
inactive: saracatinib 0 | sotrastaurin -0.168 | alvocidib 0 | Tubastatin A -0.086 | [3] -0.013 | defactinib -0.081 | rucaparib -0.053 | [1] 0.012 | encorafenib 0.149 | [2] 0.08

GYPC (UniProt P04921)
inactive: saracatinib -0.178 | sotrastaurin 0.046 | alvocidib -0.063 | Tubastatin A 0.255 | [3] -0.091 | defactinib -0.049 | rucaparib -0.005 | [1] 0.109 | encorafenib -0.118 | [2] 0.039

GTPBP6 (UniProt O43824)
inactive: saracatinib 0.049 | sotrastaurin -0.011 | Tubastatin A -0.03 | [3] -0.149 | defactinib -0.013 | rucaparib 0.053 | [1] 0.007 | encorafenib -0.086 | [2] 0.057

HEBP1 (UniProt Q9NRV9)
inactive: saracatinib -0.029 | sotrastaurin -0.104 | alvocidib -0.022 | Tubastatin A -0.035 | [3] 0.294 | defactinib 0.01 | rucaparib 0 | [1] 0.141 | encorafenib -0.199 | [2] -0.011

HERPUD2 (UniProt Q9BSE4)
inactive: saracatinib 0.025 | alvocidib -0.155 | [3] 0.103 | defactinib -0.011 | [1] 0.006 | [2] -0.147

GSKIP (UniProt Q9P0R6)
inactive: saracatinib -0.05 | alvocidib 0.167 | Tubastatin A 0.008 | [3] 0.025 | defactinib 0.13 | rucaparib 0.055 | [1] -0.02 | encorafenib -0.095 | [2] 0.027

GSTM2 (UniProt P28161)
inactive: sotrastaurin -0.004 | alvocidib -0.002 | Tubastatin A 0.046 | [3] -0.003 | defactinib -0.002 | rucaparib -0.064 | encorafenib -0.021 | [2] 0.008

HBB (UniProt P68871)
inactive: rucaparib 0.631 | encorafenib -0.082

GSTA1 (UniProt P08263)
inactive: sotrastaurin 0.016 | Tubastatin A -0.024 | defactinib 0.27 | [2] -0.269

HDAC4 (UniProt P56524)
inactive: sotrastaurin -0.028 | alvocidib 0.11 | Tubastatin A 0.23 | [3] -0.222 | defactinib -0.041 | rucaparib 0.03 | encorafenib -0.133 | [2] 0.104

GSTT1 (UniProt P30711)
inactive: saracatinib -0.011 | Tubastatin A 0.015 | [3] -0.029 | defactinib -0.027 | rucaparib 0.028 | [1] 0 | encorafenib 0.023 | [2] -0.062

HGFAC (UniProt Q04756)
inactive: saracatinib 0.342 | Tubastatin A -0.302 | [3] 0.047 | [1] 0.179

HABP4 (UniProt Q5JVS0)
inactive: [3] 0.023

GSTCD (UniProt Q8NEC7)
inactive: sotrastaurin 0.012 | alvocidib -0.082 | Tubastatin A -0.035 | [3] -0.046 | defactinib -0.256 | rucaparib -0.004 | encorafenib 0.012 | [2] -0.023

HAUS8 (UniProt Q9BT25)
inactive: alvocidib 0.177 | defactinib -0.256 | [2] -0.026

HDAC10 (UniProt Q969S8)
inactive: saracatinib -0.04 | Tubastatin A 0.458 | [3] 0.108 | defactinib 0.067 | rucaparib 0.024 | [1] -0.02 | encorafenib 0.024 | [2] -0.137

HGD (UniProt Q93099)
inactive: sotrastaurin -0.046

HAUS5 (UniProt O94927)
inactive: saracatinib -0.068 | sotrastaurin 0.298 | Tubastatin A 0.021 | rucaparib 0.029 | [1] 0.136 | encorafenib -0.08

HAUS3 (UniProt Q68CZ6)
inactive: saracatinib -0.194 | alvocidib 0.205 | Tubastatin A -0.063 | [3] 0.085 | defactinib 0.174 | rucaparib 0.573 | [1] 0.166 | encorafenib 0.215 | [2] -0.308

HECTD4 (UniProt Q9Y4D8)
inactive: [3] -0.077 | defactinib -0.163 | [2] -0.225

GTPBP8 (UniProt Q8N3Z3)
inactive: Tubastatin A -0.003 | [3] 0.031 | defactinib -0.011 | rucaparib -0.058 | encorafenib -0.098 | [2] -0.208

HEXD isoform 2 (UniProt Q8WVB3)
inactive: saracatinib 0.112 | sotrastaurin -0.059 | [3] 0.231 | defactinib -0.181 | [1] -0.134 | [2] 0.075

GZF1 (UniProt Q9H116)
inactive: saracatinib -0.097 | sotrastaurin -0.034 | defactinib 0.202 | [1] 0.105 | [2] -0.009

GYG2 (UniProt O15488)
inactive: [3] -0.028

HDAC7 isoform 5 (UniProt Q8WUI4)
inactive: saracatinib -0.04 | sotrastaurin -0.048 | [3] -0.2 | defactinib -0.011 | rucaparib -0.033 | [1] 0 | encorafenib -0.016 | [2] 0.012

H2AFY (UniProt O75367)
inactive: alvocidib -0.024 | Tubastatin A -0.024 | [3] -0.19 | rucaparib 0.247 | encorafenib 0.166

GTF3C3 (UniProt Q9Y5Q9)
inactive: saracatinib 0.105 | Tubastatin A 0.073 | [3] -0.008 | rucaparib 0.021 | [1] -0.157 | encorafenib 0.032

HAUS7 isoform 2 (UniProt Q99871)
inactive: defactinib 0.056 | [2] 0.084

H1-0 (UniProt P07305)
inactive: saracatinib -0.073 | rucaparib -0.048 | [1] -0.24 | encorafenib -0.202

GXYLT1 (UniProt Q4G148)
inactive: saracatinib 0.512 | alvocidib -0.007 | Tubastatin A -0.011 | [3] -0.02 | defactinib -0.044 | rucaparib 0.008 | [1] -0.208 | encorafenib 0.252 | [2] 0.121

HBD (UniProt E9PEW8)
inactive: [3] -0.159

HERPUD1 (UniProt Q15011)
inactive: Tubastatin A 0.132 | [3] 0.126 | defactinib -0.115 | [2] -0.01

3 neighbouring records already listed, quoted:
H1-0 (UniProt P07305)
inactive: saracatinib -0.073 | rucaparib -0.048 | [1] -0.24 | encorafenib -0.202

GXYLT1 (UniProt Q4G148)
inactive: saracatinib 0.512 | alvocidib -0.007 | Tubastatin A -0.011 | [3] -0.02 | defactinib -0.044 | rucaparib 0.008 | [1] -0.208 | encorafenib 0.252 | [2] 0.121

HBD (UniProt E9PEW8)
inactive: [3] -0.159

Carrying on:

GTF2H1 (UniProt P32780)
inactive: alvocidib -0.006 | [3] 0.055 | defactinib 0.176 | rucaparib 0.082 | encorafenib -0.083 | [2] -0.121

H3-2 (UniProt Q5TEC6)
inactive: sotrastaurin 0.265 | [3] -0.072 | defactinib 0.038 | rucaparib 0.203 | encorafenib -0.132 | [2] 0.068

HES1 (UniProt Q14469)
inactive: saracatinib -0.265 | alvocidib 0.011 | Tubastatin A 0.255 | [3] 0.031 | [1] 0.28

HFM1 (UniProt A2PYH4)
inactive: saracatinib 0.059 | [1] -0.2

HAUS2 (UniProt Q9NVX0)
inactive: saracatinib -0.033 | alvocidib -0.015 | [3] -0.147 | rucaparib 0.205 | [1] 0.069 | encorafenib 0.05

HACE1 (UniProt Q8IYU2)
inactive: Tubastatin A 0.086 | [3] 0.069

HEXIM2 (UniProt Q96MH2)
inactive: defactinib -0.213 | [2] 0.029

HEATR1 (UniProt Q9H583)
inactive: saracatinib -0.005 | sotrastaurin 0.074 | Tubastatin A -0.119 | [3] -0.21 | defactinib -0.176 | [1] 0 | [2] -0.018

HACD2 (UniProt Q6Y1H2)
inactive: alvocidib -0.101 | Tubastatin A 0.015 | [3] 0.046

HCFC1 (UniProt P51610)
inactive: sotrastaurin 0.143 | Tubastatin A 0.079 | [3] 0.141 | defactinib -0.283 | rucaparib -0.19 | encorafenib -0.055 | [2] 0.132

HBZ, A0A494C057
inactive: [3] 0.005 | rucaparib -0.058 | encorafenib -0.094
